{"source": "PubChem BioAssay AID540276", "about": "(National Center for Advancing Translational Sciences (NCATS), 2011)", "note": "Out of some 300,000 compounds screened, about 5,400 (1.8%) were called active. The inconclusive results got no clear call from the source; some entries with a clear call stand among them for comparison. Calls follow the shape of the full dose curve; tested in HEK293 cells. Potencies beside an inconclusive call are fits to weak or partial responses and may not hold up. % is scaled to controls: 0 for no effect and ±100 for the full control effect; potency is read from the fitted curve at half-maximal effect."}
{"assay": "qHTS for inhibitors of binding or entry into cells for Marburg Virus", "details": "Marburg virus pseudotyped entry inhibition, cell reporter; activity change, negative = inhibition: at 37.8 µM (top of the series) unless noted"}
{"smiles": "O=C(O)CC1S/C(=N/N=C/C2CC=CCC2)NC1=O", "note": "(stereo not given)", "Potency": "inconclusive: 7.94 µM [activator, partial curve, poor fit]"}
{"smiles": "c1cncc(-c2nnc(SCc3nc4ccccc4[nH]3)o2)c1", "activity change, negative = inhibition": "inactive: 2.98%"}
{"smiles": "COc1ccc(N(Cc2cc(=O)[nH]c3ccccc23)C(=O)CCl)cc1", "Potency": "inconclusive: 25.1 µM [inhibitor, single point]"}
{"smiles": "CC(C)C(NS(=O)(=O)c1cccs1)C(=O)Nc1nc(C(C)(C)C)cs1", "note": "(stereo not given)", "Potency": "inconclusive: 29.1 µM [inhibitor, single point]"}
{"smiles": "CCOc1ccc(N(C(=O)CNC(=O)c2ccco2)C(C(=O)NC2CCCC2)c2ccncc2)cc1", "note": "(stereo not given)", "activity change, negative = inhibition": "inactive: -18.2% [at 46.1 µM]"}
{"smiles": "CCCCC(=O)C1CCN(Cc2ccccc2)CC1", "Potency": "inconclusive: 35.5 µM [inhibitor, single point]"}
{"smiles": "O=C(O)C1C2C=CC(C2)C1C(=O)Nc1cccc(C(F)(F)F)c1", "note": "(stereo not given)", "Potency": "inconclusive: 1.26 µM [inhibitor, single point]"}
{"smiles": "COC(=O)c1c(-c2ccc(Cl)cc2)noc1N1CCN(c2ccccc2F)CC1", "activity change, negative = inhibition": "inactive: -1.02% [at 46.1 µM]"}
{"smiles": "CCC(Sc1nnc(C)c(=O)[nH]1)C(=O)Nc1cccc2ccccc12", "note": "(stereo not given)", "Potency": "inconclusive: 7.08 µM [activator, partial curve]"}
{"smiles": "Nc1cc(N2CCOCC2)c(Cl)cc1[N+](=O)[O-]", "Potency": "inconclusive: 10 µM [inhibitor, partial curve, poor fit]"}
{"smiles": "COC(=O)C[C@H]1SC(=O)NC1=O", "activity change, negative = inhibition": "inactive: -0.298%"}
{"smiles": "CN1CC(O)C(O)C(O)C1CO", "note": "(stereo not given)", "activity change, negative = inhibition": "inactive: 21.8%"}
{"smiles": "CCOC(=O)c1nnc2c(-c3ccc(Cl)cc3)c(C)nn2c1N", "activity change, negative = inhibition": "inactive: 16.5% [at 46.1 µM]"}
{"smiles": "CCC(=O)c1ccc(OCc2ccc(C#N)cc2)cc1", "activity change, negative = inhibition": "inactive: -5.42% [at 46.1 µM]"}
{"smiles": "CCc1ccccc1NC(=O)Cn1nnc(C(=O)NCc2ccco2)c1N", "Potency": "inconclusive: 2.24 µM [inhibitor, partial curve, poor fit]"}
{"smiles": "COc1cccc(NC(=S)NC(=O)/C=C/c2ccco2)c1", "Potency": "inconclusive: 35.5 µM [inhibitor, single point]"}
{"smiles": "Cc1sc2nc(COC(=O)c3cccc(S(=O)(=O)N(C)c4ccccc4)c3)[nH]c(=O)c2c1C", "Potency": "inconclusive: 20.6 µM [inhibitor, partial curve]"}
{"smiles": "Fc1ccc2[nH]c3c(N4CCc5ccccc5C4)ncnc3c2c1", "Potency": "inconclusive: 0.631 µM [inhibitor, full curve, poor fit]"}
{"smiles": "COc1cc(/C=C2\\SC(=S)N(CC(=O)Nc3cccnc3)C2=O)cc(OC)c1OC", "activity change, negative = inhibition": "inactive: 24% [at 46.1 µM]"}
{"smiles": "Cc1ccc(-c2nc(CS(=O)(=O)CC(=O)NC(C)CCc3ccccc3)c(C)o2)cc1", "note": "(stereo not given)", "Potency": "inconclusive: 25.1 µM [inhibitor, single point]"}
{"smiles": "COc1ccc(/C=C/c2nc(C#N)c(N3CCC(C(N)=O)CC3)o2)cc1OC", "activity change, negative = inhibition": "inactive: 15.7% [at 46.1 µM]"}
{"smiles": "Cc1c(NC(=O)Nc2cccc(C(F)(F)F)c2)sc2nc3n(c(=O)c12)CCC(C)CC3", "note": "(stereo not given)", "activity change, negative = inhibition": "inactive: -1.1% [at 46.1 µM]"}
{"smiles": "O=C(NCc1cccnc1)C12CC3CC(CC(Cl)(C3)C1)C2", "Potency": "inconclusive: 6.31 µM [inhibitor, single point]"}
{"smiles": "CC1=NN(c2ccc(S(=O)(=O)O)cc2C)C(=O)C1", "activity change, negative = inhibition": "inactive: -3.21% [at 46.1 µM]"}
{"smiles": "CC(C)CC(=O)Nc1ccc(C(=O)NNC(=S)NC(=O)C2CCCCC2)cc1", "Potency": "inconclusive: 29.1 µM [inhibitor, single point]"}
{"smiles": "O=C(CN1CCCC1)Nc1ccccc1Cl", "Potency": "inconclusive: 29.1 µM [activator, single point]"}
{"smiles": "COc1ccc(NC(=O)c2cc([N+](=O)[O-])ccc2N2CCN(C)CC2)cc1", "activity change, negative = inhibition": "inactive: -3.22% [at 46.1 µM]"}
{"smiles": "Cc1cc(C)cc(NC(=S)NCc2ccc3[nH]c4c(c3c2)CCCC4)c1", "Potency": "inconclusive: 2.91 µM [inhibitor, partial curve, poor fit]"}
{"smiles": "COc1ccccc1NC(=O)Cc1nnc(SCC(=O)Nc2ccccc2F)n1C", "activity change, negative = inhibition": "inactive: 8.53% [at 46.1 µM]"}
{"smiles": "Cc1ccnc2nc(C(=O)Nc3nnc(CC(C)C)s3)nn12", "activity change, negative = inhibition": "inactive: 3.2%"}
{"smiles": "O=c1[nH]c(SCc2ccccc2)nc2ccsc12", "activity change, negative = inhibition": "inconclusive: 66.4% [activator] [at 46.1 µM]"}
{"smiles": "COc1ccc(C2=NO[C@@H]3C(=O)N(Cc4ccccc4)C(=O)[C@H]23)cc1OC", "Potency": "inconclusive: 0.092 µM [activator, single point]"}
{"smiles": "COc1ccc(/C=N/Nc2nc(C)cc(-c3ccccc3)n2)c(OC)c1", "activity change, negative = inhibition": "inactive: -3.04%"}
{"smiles": "c1cc2c(cc1-c1csc(NNC3=NCCCCC3)n1)OCCO2", "Potency": "inconclusive: 11.2 µM [inhibitor, partial curve, poor fit]"}
{"smiles": "O=C(Nc1nc2c(Cl)cccc2s1)c1ccc([N+](=O)[O-])o1", "Potency": "inconclusive: 35.5 µM [inhibitor, single point]"}
{"smiles": "O=C(CCN1C(=O)/C(=C\\c2cccc(Br)c2)SC1=S)N1CCOCC1", "Potency": "inconclusive: 0.355 µM [inhibitor, partial curve, poor fit]"}
{"smiles": "CCN(CC)CCSc1nnc(Nc2ccccc2)n1-c1ccccc1", "Potency": "inconclusive: 22.4 µM [inhibitor, single point]"}
{"smiles": "Cc1ccc(S(=O)(=O)N(CC(=O)O)c2ccc(Cl)c(C(F)(F)F)c2)cc1", "Potency": "inconclusive: 1.12 µM [inhibitor, partial curve, poor fit]"}
{"smiles": "COC(=O)c1ccccc1S(=O)(=O)N1CCC(C(=O)OCc2cccc(OC)c2OC)CC1", "activity change, negative = inhibition": "inactive: 5.05%"}
{"smiles": "CCc1nc(N2CCN(Cc3ccc4c(c3)OCO4)CC2)c2oc3ccccc3c2n1", "Potency": "inconclusive: 29.1 µM [inhibitor, single point]"}
{"smiles": "O=c1oc2ccccc2c(NC2CCCCC2)c1NS(=O)(=O)c1ccc(F)c(Cl)c1", "Potency": "inconclusive: 1.41 µM [inhibitor, partial curve, poor fit]"}
{"smiles": "COc1ccc(S(=O)(=O)Nc2ccccc2)cc1", "activity change, negative = inhibition": "inactive: -4.52%"}
{"smiles": "Cc1oc(-c2ccc(Cl)cc2)nc1CN1C(=O)CN=C(c2ccccc2)c2cc(Cl)ccc21", "Potency": "inconclusive: 12.6 µM [inhibitor, partial curve, poor fit]"}
{"smiles": "COc1ccc2[nH]c3c(c2c1)CCN1C(=O)C(CC(=O)NCc2cccc(C(F)(F)F)c2)C[C@H](C(=O)N2CCCCC2)[C@@]31C", "note": "(stereo not given in full)", "activity change, negative = inhibition": "inactive: -2.59%"}
{"smiles": "COc1ccccc1NC(=O)/C(N=Nc1ccc(C)c(S(=O)(=O)Nc2ccccc2Cl)c1)=C(\\C)O", "Potency": "inconclusive: 1 µM [inhibitor, full curve, poor fit]"}
{"smiles": "CC(C)NC(=O)C1CCN(C2CCN(CC3CC=CCC3)CC2)CC1", "note": "(stereo not given)", "Potency": "inconclusive: 6.31 µM [inhibitor, single point]"}
{"smiles": "COc1ccc(C(=O)CSc2nnc(CN3CCCCC3)n2-c2ccc(Cl)cc2)cc1OC", "Potency": "inconclusive: 35.5 µM [inhibitor, single point]"}
{"smiles": "COc1ccccc1C(C)NCC(=O)Nc1ccccc1C(F)(F)F", "note": "(stereo not given)", "Potency": "inconclusive: 35.5 µM [inhibitor, single point]"}
{"smiles": "O=C(Nc1ccccc1SCC1CSc2nc3ccccc3c(=O)n21)c1ccccc1", "note": "(stereo not given)", "Potency": "inconclusive: 4.47 µM [inhibitor, full curve, poor fit]"}
{"smiles": "CCOc1ccc2nc(N3CCCC(C(=O)NCCc4ccc(OC)cc4OC)C3)sc2c1", "note": "(stereo not given)", "Potency": "inconclusive: 35.5 µM [inhibitor, single point]"}
{"smiles": "COc1ccccc1N(CC(=O)Nc1ccc2c(c1)OCCO2)S(=O)(=O)c1ccc(C)cc1", "Potency": "inconclusive: 22.4 µM [inhibitor, single point]"}
{"smiles": "O=C(NCCc1c[nH]c2ccccc12)C(=O)NCC1OCCCN1S(=O)(=O)c1ccccc1", "note": "(stereo not given)", "Potency": "inconclusive: 5.62 µM [inhibitor, full curve]"}
{"smiles": "CN(C)S(=O)(=O)c1ccc(C(=O)OCC(=O)Nc2ccc(OC(F)F)cc2)cc1", "Potency": "inconclusive: 35.5 µM [inhibitor, single point]"}
{"smiles": "CC(C)Cc1nn2cc(-c3cccc(Br)c3)nc2s1", "activity change, negative = inhibition": "inconclusive: 30.1% [activator] [at 46.1 µM]"}
{"smiles": "CCc1ccc(NC(=O)COc2ccc(F)cc2C(=O)c2cnn(-c3ccccc3)c2)cc1", "Potency": "inconclusive: 22.4 µM [inhibitor, single point]"}
{"smiles": "COc1ccc(/C(=N\\O)c2ncc(C(F)(F)F)cc2Cl)cc1", "Potency": "inconclusive: 5.62 µM [inhibitor, partial curve, poor fit]"}
{"smiles": "O=C(NCCCN1CCOCC1)C(=O)c1c[nH]c2ccccc12", "activity change, negative = inhibition": "inactive: -20.2% [at 46.1 µM]"}
{"smiles": "COC(=O)N[C@@H](c1ccccc1)[C@]1(C(C)=O)CCCC1=O", "activity change, negative = inhibition": "inactive: -4.12% [at 14.2 µM]"}
{"smiles": "CCN(CC)S(=O)(=O)c1cccc(NC(=O)Nc2cccc(C(F)(F)F)c2)c1", "Potency": "active: 14.6 µM"}
{"smiles": "Cc1sc2ncn(CC(=O)OCC(=O)NC(C)(C)C)c(=O)c2c1C", "Potency": "inconclusive: 1.12 µM [inhibitor, full curve, poor fit]"}
{"smiles": "O=C(O)CCc1ccc(-c2ccc(Br)cc2)n1-c1ccccc1O", "activity change, negative = inhibition": "inactive: 4.47% [at 46.1 µM]"}
{"smiles": "CCOC(=O)C1CCN(c2cc3c(cc2NC(=O)c2ccccc2Cl)n(C)c(=O)n3C)CC1", "Potency": "inconclusive: 11.2 µM [inhibitor, single point]"}
{"smiles": "CCOc1ccc(NC(=O)N[C@@H](CCSC)C(=O)OC)cc1", "activity change, negative = inhibition": "inactive: 1.29%"}
{"smiles": "CC(C)n1c(Nc2ccccc2)nc2ccccc21", "activity change, negative = inhibition": "inactive: -21%"}
{"smiles": "CCOc1ccc(-c2nnc(SCC(=O)Nc3ccc4c(c3)c3ccccc3n4CC)n2N)cc1", "Potency": "active: 11.6 µM"}
{"smiles": "COc1ccc(N2COC3c4cccc5cccc(c45)C32)cc1", "note": "(stereo not given)", "activity change, negative = inhibition": "inactive: -37%"}
{"smiles": "COc1ccccc1N1CCc2c(C)nc3c(OC)cccc3c21", "Potency": "inconclusive: 20.6 µM [inhibitor, single point]"}
{"smiles": "Cc1ccc2nc(SCc3nc4cc(Cl)ccc4c(=O)[nH]3)[nH]c2c1", "activity change, negative = inhibition": "inactive: -10.3% [at 46.1 µM]"}
{"smiles": "CN1CCN(CCCC(=O)c2ccc(C3CCCC3)cc2)CC1", "Potency": "inconclusive: 14.1 µM [inhibitor, single point]"}
{"smiles": "CCN(CC)CCCNC1=C(Cl)C(=O)c2ccccc2C1=O", "Potency": "inconclusive: 0.631 µM [inhibitor, full curve, poor fit]"}
